PubChem BioAssay AID330 (DTP/NCI, 2004)
The list does not hold the whole screen: it covers a few groups of compounds. Other doses and runs of a compound may be missing. T/C is the treated group as % of the vehicle group. Some doses have a count of surviving animals in place of a T/C: the source files T/C as zero there, which appears to mark a toxic dose or a test without result, not a measured value. Some doses without a T/C left all or most animals alive at the check, yet need not have been tolerated: survival well below the control is almost never listed, so the zero probably covers shortened survival too. Counts of survivors are from the toxicity check (mostly the fifth day) where no day follows; animals may have died later. Schedule codes are those of the source, read here as Q, the interval in days (D) or hours (H), X, the number of doses. Some metal complexes and salts are drawn in pieces, as in the source, so charges may not balance. Some entries were tested several times; the results are listed from low to high. Where survival is the endpoint, the PubChem record calls one and a half times the control and up active, and a quarter to a half above the control has no call in these data; cut-offs in other NCI protocols can differ. Some T/C values are marked as having no survivor count here; that says nothing about deaths at the dose. Some T/C values are followed by the survivors on the day toxicity was checked, most often the fifth; without a count or a note in brackets, all were alive then.

Tested on: P388 leukemia ip, CD2F1 mice, survival T/C
Assay: NCI In Vivo Anticancer Drug Screen. Data for tumor model P388 Leukemia (intraperitoneal) in CD2F1 (CDF1) mice
Settings: T/C endpoint: median survival time, higher T/C = longer survival
[1] = dose: 0.78 mg/kg/injection, schedule: Q01DX009 (ip), vehicle: Klucel (hydroxypropylcellulose) (HPC)
[2] = dose: 1.56 mg/kg/injection, schedule: Q01DX009 (ip), vehicle: Klucel (hydroxypropylcellulose) (HPC)
[3] = dose: 6.25 mg/kg/injection, schedule: Q01DX009 (ip), vehicle: Klucel (hydroxypropylcellulose) (HPC)
[4] = dose: 12.5 mg/kg/injection, schedule: Q01DX009 (ip), vehicle: Klucel (hydroxypropylcellulose) (HPC)
[5] = dose: 25.0 mg/kg/injection, schedule: Q01DX009 (ip), vehicle: Klucel (hydroxypropylcellulose) (HPC)
[6] = dose: 100.0 mg/kg/injection, schedule: Q01DX009 (ip), vehicle: Klucel (hydroxypropylcellulose) (HPC)
[7] = dose: 200.0 mg/kg/injection, schedule: Q01DX009 (ip), vehicle: Klucel (hydroxypropylcellulose) (HPC)
[8] = dose: 100.0 mg/kg/injection, schedule: Q01DX009 (ip), vehicle: saline
[9] = dose: 200.0 mg/kg/injection, schedule: Q01DX009 (ip), vehicle: saline
[10] = dose: 50.0 mg/kg/injection, schedule: Q01DX009 (ip), vehicle: Klucel (hydroxypropylcellulose) (HPC)
[11] = dose: 12.5 mg/kg/injection, schedule: Q01DX009 (ip), vehicle: saline
[12] = dose: 50.0 mg/kg/injection, schedule: Q01DX009 (ip), vehicle: saline
[13] = dose: 60.0 mg/kg/injection, schedule: Q01DX005 (ip), vehicle: saline
[14] = dose: 120.0 mg/kg/injection, schedule: Q01DX005 (ip), vehicle: saline
[15] = dose: 240.0 mg/kg/injection, schedule: Q01DX005 (ip), vehicle: saline
[16] = dose: 100.0 mg/kg/injection, schedule: Q04DX003 (ip), vehicle: saline
[17] = dose: 200.0 mg/kg/injection, schedule: Q04DX003 (ip), vehicle: saline
[18] = dose: 400.0 mg/kg/injection, schedule: Q04DX003 (ip), vehicle: saline

Structure (SMILES): Cc1cc(N(CCCl)CCCl)ccc1N
- T/C (dose: 0.39 mg/kg/injection, schedule: Q01DX009 (ip), vehicle: Klucel (hydroxypropylcellulose) (HPC)): 109 % of control
- T/C [1]: 135 and 158 % of control
- T/C [2]: 127 and 180 % of control
- survivor count (dose: 3.13 mg/kg/injection, schedule: Q01DX009 (ip), vehicle: Klucel (hydroxypropylcellulose) (HPC)): 6 of 6
- survivor count [3]: 6 of 6
- survivor count [4]: 0 of 6
- survivor count [5]: 0 of 6

Structure (SMILES): O=C(O)/C=C\c1cccc(N(CCCl)CCCl)c1
- T/C (dose: 6.25 mg/kg/injection, schedule: Q01DX009 (ip), vehicle: saline with Tween-80): 108 % of control
- T/C (dose: 12.5 mg/kg/injection, schedule: Q01DX009 (ip), vehicle: saline with Tween-80): 113 % of control
- T/C (dose: 25.0 mg/kg/injection, schedule: Q01DX009 (ip), vehicle: saline with Tween-80): 160 % of control
- T/C (dose: 66.0 mg/kg/injection, schedule: Q04DX003 (ip), vehicle: saline with Tween-80): 113 % of control [5 of 6 alive]
- T/C (dose: 100.0 mg/kg/injection, schedule: Q04DX003 (ip), vehicle: saline with Tween-80): 154 and 159 % of control
- T/C (dose: 150.0 mg/kg/injection, schedule: Q04DX003 (ip), vehicle: saline with Tween-80): 118 % of control [4 of 6 alive]
- T/C (dose: 200.0 mg/kg/injection, schedule: Q04DX003 (ip), vehicle: saline with Tween-80): 186 % of control
- survivor count (dose: 400.0 mg/kg/injection, schedule: Q04DX003 (ip), vehicle: saline with Tween-80): 3 of 6

Structure (SMILES): CCOP(=O)(O)CC.[V]
- T/C [6]: 90 % of control [survivor count not shown]
- T/C [7]: 94 % of control [survivor count not shown]

Structure (SMILES): O=NN(CC(F)([N+](=O)[O-])[N+](=O)[O-])CC(F)([N+](=O)[O-])[N+](=O)[O-]
- T/C [8]: 116 % of control
- T/C [9]: 121 % of control
- survivor count (dose: 400.0 mg/kg/injection, schedule: Q01DX009 (ip), vehicle: saline): 2 of 6

Structure (SMILES): NC(=O)Nc1ccc(N(CCCl)CCCl)cc1
- T/C [1]: 109 % of control
- T/C [2]: 108 % of control
- T/C (dose: 3.12 mg/kg/injection, schedule: Q01DX009 (ip), vehicle: Klucel (hydroxypropylcellulose) (HPC)): 123 and 183 % of control
- T/C [3]: 125 and 183 % of control
- T/C [4]: 144 and 204 % of control
- T/C [5]: 97, 100, 110 % of control
- survivor count [10]: 6 of 6
- survivor count [6]: 3 of 6
- survivor count [7]: 0 of 6

Structure (SMILES): CCOP(=O)(OCC)N(C)N=NC
- T/C (dose: 50.0 mg/kg/injection, schedule: Q01DX005 (ip), vehicle: saline): 103 % of control
- T/C (dose: 100.0 mg/kg/injection, schedule: Q01DX005 (ip), vehicle: saline): 98 % of control
- T/C (dose: 200.0 mg/kg/injection, schedule: Q01DX005 (ip), vehicle: saline): 103 % of control

Structure (SMILES): O=S(=O)(O)Oc1ccc(N(CCCl)CCCl)cc1
- T/C [11]: 142 % of control
- T/C (dose: 25.0 mg/kg/injection, schedule: Q01DX009 (ip), vehicle: saline): 164 % of control
- T/C [12]: 151 and 164 % of control
- T/C [8]: 163 and 169 % of control
- T/C [9]: 100 % of control

Structure (SMILES): [Au].[C-]#N.[C-]#N
- T/C (dose: 1.56 mg/kg/injection, schedule: Q01DX009 (ip), vehicle: saline): 122 % of control
- T/C (dose: 3.13 mg/kg/injection, schedule: Q01DX009 (ip), vehicle: saline): 128 and 138 % of control
- T/C (dose: 6.25 mg/kg/injection, schedule: Q01DX009 (ip), vehicle: saline): 135 [4 of 6 alive] and 150 % of control [4 of 6 alive]
- survivor count [11]: 0 of 6 and 4 of 6
- survivor count [12]: 0 of 6
- survivor count [8]: 0 of 6
- survivor count [9]: 0 of 6

Structure (SMILES): CC1(CCC2(C)N=C(NN=C(CCl)CCl)SP2(=O)Nc2ncccn2)N=C(NN=C(CCl)CCl)SP1(=O)Nc1ncccn1 (stereo not given)
- T/C [13]: 106 % of control
- T/C [14]: 95 % of control [4 of 6 alive]
- survivor count [15]: 0 of 6

Structure (SMILES): CC(C)OP(C)(=O)OC(C)C.CC(C)OP(C)(=O)OC(C)C.CC(C)OP(C)(=O)OC(C)C.CC(C)OP(C)(=O)OC(C)C.[Co+2].[O-][Cl+3]([O-])([O-])O
- T/C [12]: 98 % of control [survivor count not shown]
- T/C [8]: 114 % of control [survivor count not shown]

Structure (SMILES): CCN(CCCl)CC1OC(OC)C2OC(C)(C)OC12 (stereo not given)
- T/C (dose: 3.13 mg/kg/injection, schedule: Q01DX009 (ip), vehicle: saline + alcohol): 169 % of control
- T/C (dose: 4.3 mg/kg/injection, schedule: Q01DX009 (ip), vehicle: saline): 154 % of control
- T/C (dose: 6.25 mg/kg/injection, schedule: Q01DX009 (ip), vehicle: saline + alcohol): 169 % of control
- T/C (dose: 7.2 mg/kg/injection, schedule: Q01DX009 (ip), vehicle: saline): 154 % of control
- T/C (dose: 12.0 mg/kg/injection, schedule: Q01DX009 (ip), vehicle: saline): 168 % of control
- T/C (dose: 12.5 mg/kg/injection, schedule: Q01DX009 (ip), vehicle: saline + alcohol): 183 % of control
- survivor count (dose: 20.0 mg/kg/injection, schedule: Q01DX009 (ip), vehicle: saline): 10 of 10
- survivor count (dose: 25.0 mg/kg/injection, schedule: Q01DX009 (ip), vehicle: saline + alcohol): 6 of 6
- T/C (dose: 63.0 micrograms/kg/injection, schedule: Q01DX009 (ip), vehicle: saline): 109 % of control
- T/C (dose: 125.0 micrograms/kg/injection, schedule: Q01DX009 (ip), vehicle: saline): 126 % of control
- T/C (dose: 250.0 micrograms/kg/injection, schedule: Q01DX009 (ip), vehicle: saline): 135 % of control
- T/C (dose: 500.0 micrograms/kg/injection, schedule: Q01DX009 (ip), vehicle: saline): 157 % of control

Structure (SMILES): CONC(=O)NP(=O)(N1CC1(C)C)N1CC1(C)C (stereo not given)
- T/C [5]: 132 % of control
- T/C [10]: 119 and 148 % of control
- T/C [6]: 153 and 174 % of control
- T/C [7]: 139 and 177 % of control

Structure (SMILES): C/C(CCl)=N\NC1=NC(C)(CCl)P(=O)(Nc2ncn[nH]2)S1 (stereo not given)
- T/C [13]: 95 % of control
- T/C [14]: 103 % of control
- survivor count [15]: 0 of 6

Structure (SMILES): NCCNCCCl
- T/C [16]: 91 % of control
- T/C [17]: 100 % of control
- T/C [18]: 95 % of control

Structure (SMILES): O=[N+]([O-])c1cc([N+](=O)[O-])c(-n2cnc([N+](=O)[O-])c2)c([N+](=O)[O-])c1
- survivor count (dose: 25.0 mg/kg/injection, schedule: Q04DX003 (ip), vehicle: saline): 0 of 6
- survivor count (dose: 50.0 mg/kg/injection, schedule: Q04DX003 (ip), vehicle: saline): 0 of 6
- survivor count [16]: 1 of 6
- survivor count [17]: 0 of 6
- survivor count [18]: 0 of 6

Structure (SMILES): NCCCl
- T/C (dose: 50.0 mg/kg/injection, schedule: Q01DX001 (ip), vehicle: saline): 97 % of control
- T/C (dose: 100.0 mg/kg/injection, schedule: Q01DX001 (ip), vehicle: saline): 108 % of control
- T/C (dose: 200.0 mg/kg/injection, schedule: Q01DX001 (ip), vehicle: saline): 100 % of control
- T/C (dose: 400.0 mg/kg/injection, schedule: Q01DX001 (ip), vehicle: saline): 100 % of control
